# Test results as given in PubChem BioAssay AID743255 (National Center for Advancing Translational Sciences (NCATS), 2014).
# The chains behind the UniProt entries cited, without tags or fusion partners. Where a name states a change or a piece, a line headed by the entry shows the natural chain unless it says otherwise.
# UniProt O94782: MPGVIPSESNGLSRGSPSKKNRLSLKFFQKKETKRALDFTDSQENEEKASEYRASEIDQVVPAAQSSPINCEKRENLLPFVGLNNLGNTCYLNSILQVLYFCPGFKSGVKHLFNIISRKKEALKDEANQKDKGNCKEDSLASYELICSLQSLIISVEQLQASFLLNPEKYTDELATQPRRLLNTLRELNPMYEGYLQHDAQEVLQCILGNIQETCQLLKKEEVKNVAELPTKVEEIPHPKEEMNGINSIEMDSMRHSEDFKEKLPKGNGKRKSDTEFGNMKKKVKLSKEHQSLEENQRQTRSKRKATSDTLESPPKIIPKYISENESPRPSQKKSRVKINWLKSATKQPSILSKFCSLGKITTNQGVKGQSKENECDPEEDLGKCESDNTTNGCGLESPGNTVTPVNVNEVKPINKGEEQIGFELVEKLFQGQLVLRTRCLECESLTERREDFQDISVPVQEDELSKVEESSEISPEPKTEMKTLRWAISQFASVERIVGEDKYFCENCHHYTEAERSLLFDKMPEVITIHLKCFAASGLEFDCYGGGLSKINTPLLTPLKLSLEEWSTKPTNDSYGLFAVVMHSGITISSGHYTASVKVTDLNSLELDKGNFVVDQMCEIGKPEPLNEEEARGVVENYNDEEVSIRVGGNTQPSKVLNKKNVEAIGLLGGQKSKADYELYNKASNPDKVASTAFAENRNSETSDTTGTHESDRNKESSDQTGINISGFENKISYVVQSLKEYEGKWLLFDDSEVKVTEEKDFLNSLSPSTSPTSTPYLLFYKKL
# “And” between values parts separate entries of the source, which are not always exact repeats. Equal values may be shown once. Hit rate of the full screen: of about 390,000 compounds, about 910 (0.23%) were called active. Inconclusive means that the source gave no clear call. Such entries were picked first, then a sample of the others. Calls come from the whole dose curve; as a rule, active = well fitted inhibition curve with a large enough effect; inconclusive = small, poorly fitted or top-dose-only effect; inactive = no such curve, though single readings can be large or run the other way. Potencies beside an inconclusive call are fits to weak or partial responses and may not hold up.
# Target: Ubiquitin carboxyl-terminal hydrolase 1 (Homo sapiens) (UniProt O94782)
# Assay: Inhibitors of USP1/UAF1: Primary Screen; note: nearly all actives have a fitted effect of over 60% in size
# Details: recombinant USP1/UAF1, Ub-Rhodamine cleavage fluorescence; series mostly up to 57.1 µM
# Outline: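 USP1/UAF1 complex at 1 nM was preincubated with compound for 15 min at room temperature, then Ub-Rho substrate (150nM final) was added. Fluorescence (480/540 nm) was read kinetically, 6 reads every 60 seconds.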
# Potency is the fitted concentration of half-maximal effect.
row,Compound,Potency
1,O=C1NNC(c2ccccc2)=N/C1=C\c1ccc(Cl)cc1,"inconclusive: 44.7 µM [inhibitor, partial curve, poor fit]"
2,COc1ccccc1NC(=O)c1ccc(NC(=O)CSc2ncccn2)cc1,"inconclusive: 44.7 µM [inhibitor, single point]"
3,COc1ccc(/C=C/C(=O)c2ccc(O)cc2)cc1,"inconclusive: 31.6 µM [inhibitor, partial curve]"
4,O=C1C(N2CCOCC2)=Cc2cccc3cccc1c23,"inconclusive: 39.8 µM [inhibitor, partial curve]"
5,CCOc1ccc(C(c2nnnn2C(C)(C)C)N2CCN(C(=O)c3ccco3)CC2)cc1 (configuration not stated),inactive
6,Cc1c(C(=O)Nc2ccccc2)sc2ncn(CC(=O)N3CCCCC3)c(=O)c12,inactive
7,COc1cc(Cl)c(CC(=O)c2c[nH]c3ccccc23)cc1OC,inactive
8,O=C(CCN1C(=O)/C(=C\C=C\c2ccccc2)SC1=S)Nc1cccc(C(=O)O)c1,"inconclusive: 39.8 µM [inhibitor, partial curve]"
9,COC(=O)c1nn(-c2ccc(OC)cc2)c(=O)cc1Sc1ccc(C)cc1,"inconclusive: 17.8 µM [inhibitor, partial curve]"
10,CCN(CC)CCN1C(=O)c2ccccc2NC1c1ccc(Br)cc1 (configuration not stated),"inconclusive: 44.7 µM [inhibitor, partial curve, poor fit]"
11,CN1CCN(c2cc3c(c4c2[nH]c2ccccc24)C(=O)CC(C)(C)C3)CC1,"inconclusive: 44.7 µM [inhibitor, partial curve, poor fit]"
12,C=CCN1C(=O)/C(=C\c2cccc(OC(=O)c3ccco3)c2)SC1=S,"inconclusive: 0.316 µM [inhibitor, full curve, poor fit]"
13,CCCCCn1nc(C(=O)N(CCOC)c2c(N)n(CCCC)c(=O)[nH]c2=O)c2ccccc2c1=O,inactive
14,COc1cccc(NC(=O)c2cc3c(=O)n(C)c4ccccc4c3n2C)c1,inactive
15,Cc1ccccc1NC(=O)CN1C(=O)C(C)(C)c2ccccc21,"inconclusive: 3.16 µM [inhibitor, full curve, poor fit]"
16,CCOC(=O)COc1nc(C)c(Br)c(OC)n1,"inconclusive: 35.5 µM [inhibitor, single point]"
17,CC1(C)CC(NC(=O)CSc2ccccc2)CC(C)(C)N1,inactive
18,Cc1ccc(NC(=O)c2sc3ncnc(N(C)C4CCCCC4)c3c2C)cc1,"inconclusive: 39.8 µM [inhibitor, single point]"
19,Cc1ccc(NC(=O)COC(=O)CCc2ccccc2)cc1S(=O)(=O)N1CCOCC1,"inconclusive: 39.8 µM [inhibitor, partial curve, poor fit]"
20,O=C(NCc1ccccn1)C1CC(=O)N(C2CCCC2)C1 (configuration not stated),"inconclusive: 0.316 µM [inhibitor, full curve]"
21,O=C(CSc1nnc2scc(-c3ccccc3)n12)Nc1nsc(-c2ccccc2)n1,"inconclusive: 35.5 µM [inhibitor, partial curve]"

# Individual results from the results shown:
# COc1cc(Cl)c(CC(=O)c2c[nH]c3ccccc23)cc1OC | Potency: inactive
# CC1(C)CC(NC(=O)CSc2ccccc2)CC(C)(C)N1 | Potency: inactive
# O=C(CSc1nnc2scc(-c3ccccc3)n12)Nc1nsc(-c2ccccc2)n1 | Potency: inconclusive: 35.5 µM [inhibitor, partial curve]

# (continued)

row,Compound,Potency
1,CCN1CCN(CC(=O)Nc2ccc(Cl)c(Cl)c2)C(=O)C1=O,"inconclusive: 35.5 µM [inhibitor, partial curve]"
2,COc1cccc(NC(=O)COC(=O)c2c(NC(C)=O)sc(C)c2C)c1,inactive
3,Cc1cc(Br)ccc1NC(=O)CCSc1ccccc1,"inconclusive: 0.501 µM [inhibitor, full curve, poor fit]"
4,CC(C)C[C@@H](CN1CCCC1CN1C(=S)NC[C@@H]1Cc1ccc(O)cc1)N1C[C@H](Cc2ccc(O)cc2)N(CC2CCCCCC2)C1=S (some centres not stated),"inconclusive: 12.6 µM [inhibitor, partial curve, poor fit]"
5,N#C/C(=C\c1ccc(C(=O)O)cc1)c1nc2sc3c(c2c(=O)[nH]1)CCCC3,"inconclusive: 35.5 µM [inhibitor, partial curve, poor fit]"
6,O=C1/C(=N\S(=O)(=O)c2cccs2)C([n+]2ccccc2)=C([O-])c2ccccc21,"inconclusive: 20 µM [inhibitor, partial curve]"
7,Cc1ccccc1NS(=O)(=O)c1nnc(NC(=O)c2ccco2)s1,inactive
8,CC(=O)c1ccc(N=Nc2ccc(C)cc2)cc1,inactive
9,COc1ccc(NC(=O)c2ccc(NC(=O)CCS(=O)(=O)c3cccs3)cc2)cc1,"inconclusive: 0.0282 µM [inhibitor, full curve, poor fit]"
10,CCO[C@@H]1OC(C(=O)NC2CC2)=C[C@H](C2CC2)[C@H]1CCCO,"inconclusive: 39.8 µM [inhibitor, partial curve]"
11,CC(C)c1ccc(NC(=S)NCc2ccc3c(c2)OCO3)cc1,"inconclusive: 39.8 µM [inhibitor, partial curve, poor fit]"
12,COc1cccc(-c2nn(-c3ccccc3)cc2CNC(C)Cn2cncn2)c1 (configuration not stated),"inconclusive: 44.7 µM [inhibitor, partial curve, poor fit]"
13,CCc1cc(C(=O)OC)c(NC(=O)c2cc(Br)cs2)s1,"inconclusive: 7.08 µM [inhibitor, single point]"
14,CC(=O)N(C)c1ccc(N=Cc2cc3c(cc2[N+](=O)[O-])OCO3)cc1,"inconclusive: 10 µM [inhibitor, partial curve, poor fit]"
15,COc1ccc(NCc2ccc([N+](=O)[O-])s2)c(OC)c1,"inconclusive: 28.2 µM [inhibitor, single point]"
16,COc1ccc(C=C2C(=O)c3ccccc3C2=O)cc1O,"inconclusive: 0.141 µM [inhibitor, full curve, poor fit]"
17,CC1CCN(CC(=O)Nc2cccc(C(=O)Nc3cccc(C(F)(F)F)c3)c2)CC1,inactive
18,O=C1CCN(Cc2ccccc2)S(=O)(=O)c2ccc(F)cc21,"inconclusive: 0.251 µM [inhibitor, full curve, poor fit]"
19,OCC[C@H]1C[C@H](O)[C@@H](O)[C@]2(OCc3ccccc32)O1,"inconclusive: 112 µM [inhibitor, partial curve, poor fit]"
20,Cc1ccc(C(C[N+](=O)[O-])Sc2ccc(N)cc2)cc1 (configuration not stated),inactive
21,CC(C)CC(=O)Nc1nnc(S(=O)(=O)N2CCc3ccccc32)s1,"inactive and inconclusive: 44.7 µM [inhibitor, partial curve, poor fit]"

row,Compound,Potency
1,Cc1ccc(CSc2oc(-c3cccs3)nc2S(=O)(=O)c2ccc(C)cc2)cc1,"inconclusive: 5.01 µM [inhibitor, single point]"
2,Cc1ccc(NC(=O)CN2C(=O)S/C(=C\c3ccc(-c4cccc(C(=O)O)c4C)o3)C2=O)cc1C,"inconclusive: 44.7 µM [inhibitor, single point]"
3,COc1ccc(-c2nc(SCC(=O)Nc3ccc4c(c3)OCCO4)c(-c3ccccc3)[nH]2)cc1,inactive
4,Cc1ccc(NC(=O)CSC2=C(C#N)C(c3ccco3)CC(=O)N2)cc1 (configuration not stated),inactive
5,CCSc1nn(CC(=O)Nc2cccc(Cl)c2)c(N)c1S(=O)(=O)c1ccc(OC)cc1,"inconclusive: 5.62 µM [inhibitor, partial curve]"
6,O=C(CSc1nnnn1Cc1ccccc1)c1ccc(F)cc1,inactive
7,CCOC(=O)N1CCN(C(=O)CN(c2cccc(C(F)(F)F)c2)S(=O)(=O)c2ccccc2)CC1,"inconclusive: 35.5 µM [inhibitor, partial curve, poor fit]"
8,C[C@@H]1CC[C@H]2C(=O)N3[C@@H](CC[C@@H](C)[C@@H]3c3ccc(Br)cc3)C(=O)N2[C@H]1c1ccc(Br)cc1,"inconclusive: 6.31 µM [inhibitor, partial curve]"
9,COc1ccc2c(c1)OC[C@H]1[C@H]2N2C(=O)c3ccccc3NC(=O)[C@@]2(C)[C@H]1c1ccccc1,"inconclusive: 15.8 µM [inhibitor, partial curve, poor fit]"
10,COc1ccc(NC2CCCN(C(=O)C3=NN(C)C(=O)CC3)C2)cc1OC (configuration not stated),"inconclusive: 20 µM [inhibitor, partial curve]"
11,CCOC(=O)C1CCN(C(=O)Nc2ccc3c(c2)nc(C)n3C)CC1,inactive
12,CCN1CCN(c2ccc(S(=O)(=O)N3CCOCC3)cc2NC(=O)c2cc(F)c(F)c(F)c2F)CC1,"inconclusive: 0.251 µM [inhibitor, partial curve, poor fit]"
13,CC(C)(C)c1ccc(-c2noc(-c3ccc4c(c3)CCO4)n2)cc1,"inconclusive: 4.47 µM [inhibitor, partial curve]"
14,COc1ccc2cc(CNc3ccc(C)cc3)c(=O)n(CC(=O)Nc3cccc(Cl)c3C)c2c1,"inconclusive: 22.4 µM [inhibitor, partial curve]"
15,COc1ccc(NS(=O)(=O)c2cccc(C(=O)N/N=C(\C)c3ccc(-n4ccnc4)cc3)c2)cc1,"inconclusive: 17.8 µM [inhibitor, partial curve]"
16,COc1ccc(C2C(C(C)=O)=C(O)C(=O)N2c2nccs2)cc1OC (configuration not stated),inactive
17,O=C(C1CCC(CNc2c(N3CCOCC3)c(=O)c2=O)CC1)N1CCN(c2ccccc2)CC1 (configuration not stated),"inconclusive: 0.282 µM [inhibitor, full curve, poor fit]"
18,CSc1nsc(/C=C/Nc2cccc(Cl)c2)c1C#N,"inconclusive: 22.4 µM [inhibitor, partial curve]"
19,CC(/C=C/c1ccc(N(C)C)cc1)=N\N=C1\NC(=O)CC(C(=O)Nc2ccccc2)S1 (configuration not stated),"inconclusive: 35.5 µM [inhibitor, partial curve]"
20,Cc1ccc(C)c(S(=O)(=O)Nc2cc(SCC(=O)O)c(O)c3ccccc23)c1,"inconclusive: 35.5 µM [inhibitor, partial curve]"
